Assay in all cases: co-IP
Experiment [1] has as its target T1, HA-tagged TREM-2 full-length (triggering receptor expressed on myeloid cells 2) (human) (UniProt Q9NZC2).
T1 sequence: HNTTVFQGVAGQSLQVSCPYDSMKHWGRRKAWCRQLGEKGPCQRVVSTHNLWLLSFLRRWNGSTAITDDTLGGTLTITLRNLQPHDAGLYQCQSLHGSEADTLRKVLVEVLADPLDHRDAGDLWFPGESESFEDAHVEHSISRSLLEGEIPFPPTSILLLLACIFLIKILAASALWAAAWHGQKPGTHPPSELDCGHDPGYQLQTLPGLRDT

The target in experiment [2] is T2, TREM-2 (endogenous, CD4+ T cells and lung tissue) (human (endogenous in CD4+ T cells and lung tissue)) (UniProt Q9NZC2).
T2 sequence: T1 sequence

Experiment [3] deals with FLAG-tagged SARS-CoV-2 M protein (membrane protein) (SARS-CoV-2) (UniProt P0DTC5).

These are yes or no findings as the source states them, for the method shown. Binding seen in cells or lysates may run through a third protein. Some results given as binding are weak or reduced against the parent protein; the word gives no strength. For part of these data: Tags and fused reporters may be left off the sequences shown.

In the case of “Myc-tagged CD3ζ (from UniProt P20963-1 22-164)”, the binding result in experiment [1] is “binds”.

Turning to “CD3ζ (endogenous, CD4+ T cells and lung tissue) (from UniProt P20963-1 22-164)”, the binding result in experiment [2] is given as “binds”.

As to “FLAG-tagged SARS-CoV-2 M protein (membrane protein) (from UniProt P0DTC5 1-222)”, in experiment [1], the binding entry is reported as “binds”.

Regarding “ZAP70 (ζ-chain associated protein of 70 kDa; endogenous, CD4+ T cells and lung tissue) (from UniProt P43403 1-619) (enzyme)”, the binding result in experiment [2] was “binds”.

As to “SARS-CoV-2 M protein in lung tissue of a patient with COVID-19 (from UniProt P0DTC5 1-222)”, the binding result in experiment [2] was “binds”.

B1: HA-tagged TREM-2 full-length (triggering receptor expressed on myeloid cells 2) (receptor, UniProt Q9NZC2 19-230)
chain: T1 sequence
Regarding B1, the binding result in experiment [3] is on record as “binds”.

For the origin of these results see paper PMC8654301.
